Measurements taken from PubChem BioAssay AID1671190 (National Center for Advancing Translational Sciences (NCATS), 2021).
The whole screen tested about 580,000 compounds, of which about 6,100 (1.1%) were called active. Inconclusive results, whose numbers are uncertain, are shown with a selection of clear calls. The call rests on the fitted dose curve; in most records, active means well fitted inhibition curve with a large enough effect; inconclusive means small, poorly fitted or top-dose-only effect, or another doubt; inactive means no such curve, though single readings can be large or run the other way. Potencies beside an inconclusive call are fits to weak or partial responses and may not hold up.

Amino acid sequences for entries named in this document (tags omitted). A change or cut given only in a name is not applied to a line headed by its entry.
UniProt P18054: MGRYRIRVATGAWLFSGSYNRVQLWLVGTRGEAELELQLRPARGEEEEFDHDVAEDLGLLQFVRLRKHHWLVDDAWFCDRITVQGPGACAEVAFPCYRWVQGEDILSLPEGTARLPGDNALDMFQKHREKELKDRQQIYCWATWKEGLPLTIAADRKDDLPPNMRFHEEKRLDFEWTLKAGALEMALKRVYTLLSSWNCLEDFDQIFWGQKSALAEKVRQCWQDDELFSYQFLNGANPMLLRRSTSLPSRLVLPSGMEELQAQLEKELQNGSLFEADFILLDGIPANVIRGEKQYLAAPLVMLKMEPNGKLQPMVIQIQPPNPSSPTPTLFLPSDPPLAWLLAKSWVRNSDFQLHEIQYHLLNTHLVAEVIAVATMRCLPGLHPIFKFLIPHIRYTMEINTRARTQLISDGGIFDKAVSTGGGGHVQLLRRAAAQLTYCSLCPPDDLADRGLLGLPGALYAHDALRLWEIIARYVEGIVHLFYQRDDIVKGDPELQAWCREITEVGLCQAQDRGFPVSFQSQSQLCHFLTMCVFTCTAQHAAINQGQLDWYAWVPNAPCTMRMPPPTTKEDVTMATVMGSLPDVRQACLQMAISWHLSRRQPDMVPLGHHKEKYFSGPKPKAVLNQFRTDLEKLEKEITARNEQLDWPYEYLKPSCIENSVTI

The molecules below were run against Polyunsaturated fatty acid lipoxygenase ALOX12 (Homo sapiens) (UniProt P18054) (assay: Primary qHTS assay for inhibitors of human arachidonate 12S-lipoxygenase (ALOX12): Round 2). Conditions: purified 12hLO, xylenol orange hydroperoxide absorbance; series mostly up to 108 µM.
Outline: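 Hydroperoxide product was detected by ferrous iron/xylenol orange as the 573 to 405 nm absorbance ratio. Arachidonic acid at 40 uM (final) was turned over for 30 min at room temperature by 150 nM human 12hLO, pH 7.0 Hepes buffer, after 15 min compound preincubation.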
Potency means the concentration at half of the fitted maximal effect.

| SMILES | Potency |
| --- | --- |
| CCCn1c(NC(=O)c2oc3ccccc3c2COCC)nc2ccccc21 | inconclusive: 50.1 µM [inhibitor, partial curve, poor fit] |
| COc1ccc2c(c1)c(C(=O)CN1CCCCC1)c(C)n2C | inconclusive: 126 µM [inhibitor, single point] |
| CCCCOc1cccc(C(=O)NC(=S)Nc2cccnc2)c1 | inactive |
| O=c1c2ccccc2ncn1-c1ccc(Br)cc1[N+](=O)[O-] | inconclusive: 100 µM [inhibitor, single point] |
| Cn1ncc(N2CCCC(CC(=O)NCCc3cccnc3)C2)cc1=O (configuration not stated) | inconclusive: 22.4 µM [inhibitor, full curve, poor fit] |
| Cc1cc2ncn(-c3ncccc3[N+](=O)[O-])c2cc1C | inconclusive: 50.1 µM [inhibitor, partial curve, poor fit] |
| CCOc1ccc(-n2nc(C(=O)NCCCN(CC)Cc3ccccc3)c3ccccc3c2=O)cc1 | inconclusive: 50.1 µM [inhibitor, partial curve, poor fit] |
| OC(COC(c1ccc(Cl)cc1)c1ccc(Cl)cc1)CN1CCc2ccccc2C1 (configuration not stated) | inconclusive: 50.1 µM [inhibitor, partial curve, poor fit] |
| COCCc1noc(-c2ccccc2OC2CN(C(=O)c3cnc(C)cn3)C2)n1 | inactive |
| COc1ccc(OC)c(C2CC(c3ccc(NS(C)(=O)=O)cc3)=NN2C(=O)c2cccs2)c1 (configuration not stated) | inactive |
| CC(=O)Nc1ccc(S(=O)(=O)N2CCC(N3CCCC3)CC2)cc1 | inconclusive: 1.12 µM [inhibitor, full curve, poor fit] |
| CCOC(=O)c1ccccc1NC(=O)c1ccc(N(C)S(C)(=O)=O)cc1 | inconclusive: 5.01 µM [inhibitor, full curve, poor fit] |
| FC(F)(F)c1ccccc1-c1cncnc1NCc1cccs1 | inconclusive: 6.31 µM [inhibitor, full curve, poor fit] |
| Cc1cccn2cc(CN3CCN(S(=O)(=O)c4ccccc4)CC3)nc12 | inconclusive: 0.224 µM [inhibitor, full curve, poor fit] |
| O=C(Cc1cccs1)Nc1ccc(Cl)c(S(=O)(=O)N2CCOCC2)c1 | inconclusive: 39.8 µM [inhibitor, partial curve, poor fit] |
| Cc1ccc(CNc2ncnc3sc(C(=O)N4CCCCC4c4cccnc4)c(C)c23)o1 (configuration not stated) | inconclusive: 35.5 µM [inhibitor, partial curve, poor fit] |
| COCCn1ncc(N2CCCC(CC(=O)NCc3cccc(C)c3)C2)cc1=O (configuration not stated) | inconclusive: 20 µM [inhibitor, full curve, poor fit] |

Reprinted at random: 2 compounds from above, in no set order.

| SMILES | Potency |
| --- | --- |
| CCCCOc1cccc(C(=O)NC(=S)Nc2cccnc2)c1 | inactive |
| COc1ccc2c(c1)c(C(=O)CN1CCCCC1)c(C)n2C | inconclusive: 126 µM [inhibitor, single point] |
